Measurements reported in publication PMC10713455.
These are yes or no findings as the source states them, for the method shown. Some results given as binding are weak or reduced against the parent protein; the word gives no strength.

Amino acid sequences for entries named in this document (tags omitted).
UniProt Q1D6H4: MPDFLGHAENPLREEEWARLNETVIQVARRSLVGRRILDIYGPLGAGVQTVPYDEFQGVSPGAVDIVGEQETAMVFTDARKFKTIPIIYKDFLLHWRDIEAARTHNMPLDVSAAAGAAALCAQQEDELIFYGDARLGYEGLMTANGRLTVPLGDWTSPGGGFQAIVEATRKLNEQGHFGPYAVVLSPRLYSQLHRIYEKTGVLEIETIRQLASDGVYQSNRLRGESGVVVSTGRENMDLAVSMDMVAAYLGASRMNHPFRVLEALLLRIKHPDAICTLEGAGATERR

Biological target: Mx^FLAG (wild-type encapsulin from Myxococcus xanthus with FLAG tag) (Myxococcus xanthus) (UniProt Q1D6H4)
Assay: native gel or EMSA; Clear Native (CN) PAGE of lysates of HEK293T cells expressing the variant; NativePAGE 3 to 12% gels, cathode buffer with 0.05% sodium deoxycholate, 150 V for 2 h at room temperature; Coomassie staining or UV illumination; self-assembly of the monomers into icosahedral shells

With “Mx^FLAG (wild-type encapsulin from Myxococcus xanthus with FLAG tag) (from UniProt Q1D6H4 1-287)” the binding was “binds”.
